Assays:
[1] = test system: target (SRC) gene expression in NCI-H526 xenograft; assay: animal or person; details: Mus musculus, NCI-H526, read-out: ED50 (dose response of target (SRC) gene expression)
[2] = test system: target (SRC) gene expression in NCI-H526 xenograft; details: single-dose PK/PD experiment

`CCNC(=O)C[C@@H]1N=C(c2ccc(Cl)cc2)c2cc(OC)ccc2-n2c(C)nnc21` [2-[(4S)-6-(4-chlorophenyl)-1-methyl-8-(methyloxy)-4H-[1,2,4]triazolo[4,3-a][1,4]benzodiazepin-4-yl]-N-ethylacetamide] was tested, and the ED50 [1] was 7.1 mg/kg and the “changes in target (SRC) gene expression” value [2] was “Dose-dependent changes”.

— patent US20150238507A1, “BENZODIAZEPINES FOR TREATING SMALL CELL LUNG CANCER” (GlaxoSmithKline LLC, priority 2012, published 2015)
